This passage reports binding results from PMC11615780.

Chains of the proteins cited; added tags and fusions are not shown.
UniProt P15311: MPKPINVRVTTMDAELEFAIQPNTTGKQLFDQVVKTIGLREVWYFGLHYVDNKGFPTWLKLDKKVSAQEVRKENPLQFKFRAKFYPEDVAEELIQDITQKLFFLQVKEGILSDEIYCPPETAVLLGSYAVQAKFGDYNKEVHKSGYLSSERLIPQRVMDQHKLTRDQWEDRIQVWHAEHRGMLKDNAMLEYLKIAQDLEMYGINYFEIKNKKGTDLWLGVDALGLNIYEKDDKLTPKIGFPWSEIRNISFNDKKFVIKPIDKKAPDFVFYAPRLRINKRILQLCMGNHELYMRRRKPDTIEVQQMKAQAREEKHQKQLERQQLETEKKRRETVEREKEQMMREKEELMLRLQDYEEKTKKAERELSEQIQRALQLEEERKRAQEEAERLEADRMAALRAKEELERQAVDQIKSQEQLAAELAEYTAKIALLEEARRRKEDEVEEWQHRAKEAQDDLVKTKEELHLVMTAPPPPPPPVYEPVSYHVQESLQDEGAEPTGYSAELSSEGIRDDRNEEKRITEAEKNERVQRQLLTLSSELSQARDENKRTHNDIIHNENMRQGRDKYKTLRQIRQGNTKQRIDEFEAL
UniProt P26040: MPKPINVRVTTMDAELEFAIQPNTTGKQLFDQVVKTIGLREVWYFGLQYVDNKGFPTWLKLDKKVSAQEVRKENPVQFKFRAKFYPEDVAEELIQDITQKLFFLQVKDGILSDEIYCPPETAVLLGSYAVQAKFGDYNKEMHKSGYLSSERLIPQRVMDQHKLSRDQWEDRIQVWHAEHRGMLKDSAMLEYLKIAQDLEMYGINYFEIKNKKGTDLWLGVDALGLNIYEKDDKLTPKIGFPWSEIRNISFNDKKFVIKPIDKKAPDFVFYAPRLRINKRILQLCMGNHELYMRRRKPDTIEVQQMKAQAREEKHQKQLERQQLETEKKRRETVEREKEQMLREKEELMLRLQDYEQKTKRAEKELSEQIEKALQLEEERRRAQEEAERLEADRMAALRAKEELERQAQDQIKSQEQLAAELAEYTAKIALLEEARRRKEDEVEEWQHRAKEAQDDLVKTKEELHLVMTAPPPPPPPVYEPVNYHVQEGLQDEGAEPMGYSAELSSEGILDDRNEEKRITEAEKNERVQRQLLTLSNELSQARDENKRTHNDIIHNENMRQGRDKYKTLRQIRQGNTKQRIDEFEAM

Substitutions are numbered along the chain they refer to. Where two headings read alike, the source gives them in different places. No constants are given. Whether binding was seen depends on the method and setting. Binding seen in cells or lysates may run through a third protein. Some entries that bind do so weakly or less than the wild type. For some assays here: Where a sequence is shown, tags or fusion partners need not be part of it.

Experiment [1] deals with T1, enkurin domain containing protein 1 (ENKD1), endogenous, human cells (human (endogenous in ARPE-19 and HEK293T)) (UniProt Q9H0I2).
T1 sequence: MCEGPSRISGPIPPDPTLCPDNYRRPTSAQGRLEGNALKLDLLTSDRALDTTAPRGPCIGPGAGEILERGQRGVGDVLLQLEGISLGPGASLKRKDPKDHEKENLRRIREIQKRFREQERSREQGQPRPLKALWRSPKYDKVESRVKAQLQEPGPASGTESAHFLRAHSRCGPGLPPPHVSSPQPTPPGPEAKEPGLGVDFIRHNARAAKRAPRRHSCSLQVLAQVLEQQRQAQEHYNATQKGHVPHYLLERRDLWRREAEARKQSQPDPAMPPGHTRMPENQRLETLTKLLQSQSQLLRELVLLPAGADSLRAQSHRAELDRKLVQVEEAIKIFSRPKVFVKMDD
As to the kind of experiment: co-IP; endogenous proteins, ARPE-19 lysate; immunoprecipitation buffer 20 mM Tris-HCl, 150 mM NaCl, 1 mM EDTA, 1 mM EGTA, 1% NP-40, 2.5 mM sodium pyrophosphate, 10% glycerol, pH 7.5; antibody-conjugated agarose beads, 4 °C, 4 h.

Experiment [2] deals with T2, ENKD1, endogenous, mouse RPE / retinal tissue (mouse (endogenous in mouse RPE tissue)) (UniProt Q7TSV9).
T2 sequence: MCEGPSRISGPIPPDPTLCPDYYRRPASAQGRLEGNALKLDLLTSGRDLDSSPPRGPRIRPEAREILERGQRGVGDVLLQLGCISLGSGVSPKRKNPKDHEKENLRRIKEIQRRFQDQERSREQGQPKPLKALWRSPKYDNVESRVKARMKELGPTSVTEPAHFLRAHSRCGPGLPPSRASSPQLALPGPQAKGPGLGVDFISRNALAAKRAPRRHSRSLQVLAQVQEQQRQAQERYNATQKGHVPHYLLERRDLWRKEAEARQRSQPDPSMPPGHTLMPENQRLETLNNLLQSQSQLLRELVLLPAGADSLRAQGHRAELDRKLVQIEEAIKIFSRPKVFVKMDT
As to the kind of experiment: co-IP; endogenous proteins, lysates of mouse RPE / retinal tissue; WT and Cyld KO mice compared for ENKD1-Ezrin; immunoprecipitation buffer with 150 mM NaCl, 1% NP-40, pH 7.5, 4 °C, 4 h.

The target in experiment [3] is T3, HA-ENKD1 K141R/K242R (KK/RR) (human) (UniProt Q9H0I2).
T3 sequence: T1 sequence with K141R, K242R
As to the kind of experiment: co-IP; HEK293T cells transfected with tagged constructs (partner exogenous or endogenous); also with control or CYLD siRNAs and rescue with GFP, GFP-CYLD or GFP-CYLD C/S; immunoprecipitation buffer with 150 mM NaCl, 1% NP-40, pH 7.5, 4 °C, 4 h.

Another experiment addresses T4, HA-ENKD1 (human) (UniProt Q9H0I2).
T4 sequence: T1 sequence
Described as above.

Experiment [4] has as its target T2, ENKD1, endogenous, mouse RPE / retinal tissue (mouse (endogenous in mouse RPE tissue)). Put plainly: co-IP; endogenous proteins, lysates of mouse RPE / retinal tissue; WT and Cyld KO mice compared for ENKD1-Ezrin; immunoprecipitation buffer with 150 mM NaCl, 1% NP-40, pH 7.5, 4 °C, 4 h. The source holds these as a separate data set.

Regarding “Ezrin, endogenous, ARPE-19 cells (from UniProt P15311 1-586)”, the binding result in experiment [1] is recorded as “binds”.
Regarding “Ezrin, endogenous, mouse RPE / retinal tissue (from UniProt P26040 1-586)”, the binding result in experiment [2] is listed as “binds”.
As to “exogenous Ezrin with the indicated tag (GFP-Ezrin or Myc-Ezrin) (from UniProt P15311 1-586)”, the binding result (in experiment [3]; with HA-ENKD1 (human)) was “binds” each time.

B1: CYLD, endogenous, mouse RPE tissue (protein, UniProt Q80TQ2 1-952)
chain: MSSGLWSQEKVTSPYWEERIFYLLLQECSVTDKQTQKLLKVPKGSIGQYIQDRSVGHSRVPSTKGKKNQIGLKILEQPHAVLFVDEKDVVEINEKFTELLLAITNCEERLSLFRNRLRLSKGLQVDVGSPVKVQLRSGEEKFPGVVRFRGPLLAERTVSGIFFGVELLEEGRGQGFTDGVYQGKQLFQCDEDCGVFVALDKLELIEDDDNGLESDFAGPGDTMQVEPPPLEINSRVSLKVGESTESGTVIFCDVLPGKESLGYFVGVDMDNPIGNWDGRFDGVQLCSFASVESTILLHINDIIPDSVTQERRPPKLAFMSRGVGDKGSSSHNKPKVTGSTSDPGSRNRSELFYTLNGSSVDSQQSKSKNPWYIDEVAEDPAKSLTEMSSDFGHSSPPPQPPSMNSLSSENRFHSLPFSLTKMPNTNGSMAHSPLSLSVQSVMGELNSTPVQESPPLPISSGNAHGLEVGSLAEVKENPPFYGVIRWIGQPPGLSDVLAGLELEDECAGCTDGTFRGTRYFTCALKKALFVKLKSCRPDSRFASLQPVSNQIERCNSLAFGGYLSEVVEENTPPKMEKEGLEIMIGKKKGIQGHYNSCYLDSTLFCLFAFSSALDTVLLRPKEKNDIEYYSETQELLRTEIVNPLRIYGYVCATKIMKLRKILEKVEAASGFTSEEKDPEEFLNILFHDILRVEPLLKIRSAGQKVQDCNFYQIFMEKNEKVGVPTIQQLLEWSFINSNLKFAEAPSCLIIQMPRFGKDFKLFKKIFPSLELNITDLLEDTPRQCRICGGLAMYECRECYDDPDISAGKIKQFCKTCSTQVHLHPRRLNHSYHPVSLPKDLPDWDWRHGCIPCQKMELFAVLCIETSHYVAFVKYGKDDSAWLFFDSMADRDGGQNGFNIPQVTPCPEVGEYLKMSLEDLHSLDSRRIQGCARRLLCDAYMCMYQSPTMSLYK
As to B1, the binding result in experiment [4] is “binds”.
